Experimental data published in article PMC8569893.
Results are given in words; binding and its absence hold for the method and conditions named. Binding seen in cells or lysates may run through a third protein. Some entries that bind do so weakly or less than the wild type.

Chains of the proteins cited; added tags and fusions are not shown.
UniProt P11388: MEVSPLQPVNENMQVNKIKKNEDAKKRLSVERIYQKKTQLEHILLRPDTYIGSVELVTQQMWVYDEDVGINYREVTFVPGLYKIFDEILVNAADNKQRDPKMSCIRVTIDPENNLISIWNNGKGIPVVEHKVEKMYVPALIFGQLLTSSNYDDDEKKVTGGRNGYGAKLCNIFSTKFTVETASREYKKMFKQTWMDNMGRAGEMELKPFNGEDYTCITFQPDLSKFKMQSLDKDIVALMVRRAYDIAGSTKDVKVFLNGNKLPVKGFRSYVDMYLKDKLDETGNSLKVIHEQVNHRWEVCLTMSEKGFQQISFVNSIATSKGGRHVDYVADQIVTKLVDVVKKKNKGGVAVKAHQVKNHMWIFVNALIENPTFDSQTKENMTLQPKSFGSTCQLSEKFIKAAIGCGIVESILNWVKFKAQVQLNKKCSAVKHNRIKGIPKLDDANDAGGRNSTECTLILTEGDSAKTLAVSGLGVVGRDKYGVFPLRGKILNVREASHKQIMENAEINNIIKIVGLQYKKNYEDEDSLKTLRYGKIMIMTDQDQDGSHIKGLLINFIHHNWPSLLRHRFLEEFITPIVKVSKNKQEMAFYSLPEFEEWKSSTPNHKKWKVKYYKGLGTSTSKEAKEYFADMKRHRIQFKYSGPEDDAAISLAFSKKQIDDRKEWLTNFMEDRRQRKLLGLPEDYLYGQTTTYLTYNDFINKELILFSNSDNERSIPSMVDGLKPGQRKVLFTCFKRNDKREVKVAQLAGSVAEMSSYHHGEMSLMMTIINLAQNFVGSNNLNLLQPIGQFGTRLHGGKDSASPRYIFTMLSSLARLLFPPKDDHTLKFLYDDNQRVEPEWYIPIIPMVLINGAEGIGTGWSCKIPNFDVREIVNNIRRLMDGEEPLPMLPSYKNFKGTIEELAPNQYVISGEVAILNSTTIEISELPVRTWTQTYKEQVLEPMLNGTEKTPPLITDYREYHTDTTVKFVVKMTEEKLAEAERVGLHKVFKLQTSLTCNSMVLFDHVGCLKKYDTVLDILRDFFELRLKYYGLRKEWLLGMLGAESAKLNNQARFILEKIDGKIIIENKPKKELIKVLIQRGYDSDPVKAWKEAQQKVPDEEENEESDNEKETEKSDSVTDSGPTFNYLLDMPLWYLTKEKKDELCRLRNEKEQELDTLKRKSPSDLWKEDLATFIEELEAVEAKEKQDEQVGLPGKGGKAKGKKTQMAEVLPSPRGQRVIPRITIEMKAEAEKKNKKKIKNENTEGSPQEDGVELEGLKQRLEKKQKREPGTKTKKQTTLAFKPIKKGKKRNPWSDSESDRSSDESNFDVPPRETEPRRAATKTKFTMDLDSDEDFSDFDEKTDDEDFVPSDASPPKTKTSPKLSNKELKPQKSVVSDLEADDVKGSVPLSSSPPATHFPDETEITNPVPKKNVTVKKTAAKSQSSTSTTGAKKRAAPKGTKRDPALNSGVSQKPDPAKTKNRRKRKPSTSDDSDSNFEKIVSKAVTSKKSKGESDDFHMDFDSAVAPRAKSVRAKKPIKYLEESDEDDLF
UniProt Q02880: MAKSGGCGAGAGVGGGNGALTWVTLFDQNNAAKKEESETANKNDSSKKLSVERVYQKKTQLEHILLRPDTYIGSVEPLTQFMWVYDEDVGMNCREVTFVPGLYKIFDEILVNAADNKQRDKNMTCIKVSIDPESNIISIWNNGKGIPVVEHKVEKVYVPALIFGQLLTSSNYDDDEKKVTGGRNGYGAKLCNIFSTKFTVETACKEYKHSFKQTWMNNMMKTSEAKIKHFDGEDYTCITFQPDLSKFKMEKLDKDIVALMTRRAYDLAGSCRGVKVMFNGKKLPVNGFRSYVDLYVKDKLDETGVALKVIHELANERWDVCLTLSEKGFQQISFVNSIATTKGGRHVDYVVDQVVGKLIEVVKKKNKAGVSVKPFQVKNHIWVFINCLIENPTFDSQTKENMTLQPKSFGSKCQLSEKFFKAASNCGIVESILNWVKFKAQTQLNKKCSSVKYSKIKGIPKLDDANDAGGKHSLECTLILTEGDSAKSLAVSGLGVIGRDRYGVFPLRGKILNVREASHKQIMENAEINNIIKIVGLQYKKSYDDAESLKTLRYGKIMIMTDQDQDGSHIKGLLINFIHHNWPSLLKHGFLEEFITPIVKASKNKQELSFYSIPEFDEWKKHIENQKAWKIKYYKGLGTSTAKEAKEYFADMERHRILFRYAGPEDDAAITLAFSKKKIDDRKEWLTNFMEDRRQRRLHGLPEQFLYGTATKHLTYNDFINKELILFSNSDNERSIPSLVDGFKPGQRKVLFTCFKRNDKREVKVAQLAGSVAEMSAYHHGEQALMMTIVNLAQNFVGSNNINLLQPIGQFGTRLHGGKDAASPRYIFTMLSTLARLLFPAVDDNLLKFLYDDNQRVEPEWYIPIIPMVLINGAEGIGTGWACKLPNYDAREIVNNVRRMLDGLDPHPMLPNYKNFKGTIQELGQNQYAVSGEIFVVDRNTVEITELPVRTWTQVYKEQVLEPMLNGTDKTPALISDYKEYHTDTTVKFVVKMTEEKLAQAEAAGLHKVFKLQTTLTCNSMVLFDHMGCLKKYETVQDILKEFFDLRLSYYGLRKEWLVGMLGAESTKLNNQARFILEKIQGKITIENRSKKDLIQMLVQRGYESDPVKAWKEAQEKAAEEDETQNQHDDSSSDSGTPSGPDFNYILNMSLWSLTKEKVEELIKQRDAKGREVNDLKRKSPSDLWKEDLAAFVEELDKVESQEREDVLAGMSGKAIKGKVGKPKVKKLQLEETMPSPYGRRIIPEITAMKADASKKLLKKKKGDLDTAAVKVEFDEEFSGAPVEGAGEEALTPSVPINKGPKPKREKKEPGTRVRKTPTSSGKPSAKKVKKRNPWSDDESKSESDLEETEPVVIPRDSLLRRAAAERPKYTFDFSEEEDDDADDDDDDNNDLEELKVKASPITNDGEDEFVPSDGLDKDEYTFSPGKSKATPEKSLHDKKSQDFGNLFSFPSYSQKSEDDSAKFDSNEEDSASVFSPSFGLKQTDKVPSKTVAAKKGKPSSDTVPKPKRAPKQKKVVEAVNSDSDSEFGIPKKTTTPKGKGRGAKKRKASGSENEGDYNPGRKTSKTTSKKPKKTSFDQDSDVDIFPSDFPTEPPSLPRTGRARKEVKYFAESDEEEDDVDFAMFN
UniProt Q03468: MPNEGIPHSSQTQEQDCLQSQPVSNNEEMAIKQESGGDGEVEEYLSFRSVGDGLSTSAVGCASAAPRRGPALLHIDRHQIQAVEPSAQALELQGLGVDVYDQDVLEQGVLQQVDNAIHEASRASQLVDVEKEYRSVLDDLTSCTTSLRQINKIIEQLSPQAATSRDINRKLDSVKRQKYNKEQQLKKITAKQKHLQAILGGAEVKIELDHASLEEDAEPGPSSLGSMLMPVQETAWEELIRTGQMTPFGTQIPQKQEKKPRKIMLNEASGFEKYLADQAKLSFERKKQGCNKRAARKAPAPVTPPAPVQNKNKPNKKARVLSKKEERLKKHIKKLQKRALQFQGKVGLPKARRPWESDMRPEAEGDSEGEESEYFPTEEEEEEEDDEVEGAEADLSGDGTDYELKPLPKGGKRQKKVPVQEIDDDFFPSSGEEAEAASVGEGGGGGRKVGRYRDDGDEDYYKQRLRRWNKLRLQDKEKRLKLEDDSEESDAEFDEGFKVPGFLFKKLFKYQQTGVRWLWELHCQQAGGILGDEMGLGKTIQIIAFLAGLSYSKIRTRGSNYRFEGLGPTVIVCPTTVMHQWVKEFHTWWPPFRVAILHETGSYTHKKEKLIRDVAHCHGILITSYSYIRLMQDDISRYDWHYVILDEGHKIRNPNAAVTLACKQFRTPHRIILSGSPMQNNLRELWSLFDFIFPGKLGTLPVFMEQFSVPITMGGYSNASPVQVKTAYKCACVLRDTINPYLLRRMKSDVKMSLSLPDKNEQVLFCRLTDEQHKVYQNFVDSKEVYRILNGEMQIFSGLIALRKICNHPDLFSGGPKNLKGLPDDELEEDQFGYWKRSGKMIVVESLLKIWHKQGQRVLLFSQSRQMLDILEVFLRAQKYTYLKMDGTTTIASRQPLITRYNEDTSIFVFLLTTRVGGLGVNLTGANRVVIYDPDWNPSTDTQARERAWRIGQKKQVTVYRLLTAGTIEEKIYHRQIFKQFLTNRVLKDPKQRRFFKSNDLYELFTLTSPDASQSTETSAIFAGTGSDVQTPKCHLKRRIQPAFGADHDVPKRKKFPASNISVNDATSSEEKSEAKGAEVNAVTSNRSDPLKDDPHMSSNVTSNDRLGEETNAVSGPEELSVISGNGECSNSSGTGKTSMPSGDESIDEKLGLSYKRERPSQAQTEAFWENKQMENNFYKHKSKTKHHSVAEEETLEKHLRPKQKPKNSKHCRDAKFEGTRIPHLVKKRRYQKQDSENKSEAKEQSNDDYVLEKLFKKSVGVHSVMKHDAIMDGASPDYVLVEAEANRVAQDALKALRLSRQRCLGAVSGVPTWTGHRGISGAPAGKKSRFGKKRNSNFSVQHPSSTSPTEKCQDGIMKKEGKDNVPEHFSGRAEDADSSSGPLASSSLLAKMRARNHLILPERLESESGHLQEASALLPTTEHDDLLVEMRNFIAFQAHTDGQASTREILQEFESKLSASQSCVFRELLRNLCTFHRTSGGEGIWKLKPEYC

Key:
FLAG tagged TOP2A = FLAG tagged TOP2A (UniProt P11388); assay: co-IP; FLAG-TOP2A or FLAG-TOP2B precipitated on ANTI-FLAG M2 Affinity Gel from HEK-293T lysate, washed with 50 mM Tris-HCl pH 7.5, 250 mM NaCl, 0.5% NP40, blot with anti-CSB; cells untreated or treated 2 h with DOX, MXT or ETO
FLAG tagged TOP2B [1] = biological target: FLAG tagged TOP2B (UniProt Q02880); assay: as above
FLAG tagged TOP2B [2] = biological target: FLAG tagged TOP2B (UniProt Q02880); assay: co-IP; FLAG-TOP2B precipitated on ANTI-FLAG M2 Affinity Gel from lysate of HEK-293T cells treated 2 h with ETO, blot with anti-CSB
FLAG tagged TOP2B [3] = biological target: FLAG tagged TOP2B (UniProt Q02880); assay: co-IP; FLAG-TOP2B precipitated on ANTI-FLAG M2 Affinity Gel from lysate of HEK-293T cells treated 2 h with DOX, blot with anti-CSB

For “Cockayne Syndrome B (CSB) protein (from UniProt Q03468 1-1493)”, the binding (FLAG tagged TOP2A) was “binds weakly”, the binding (FLAG tagged TOP2B [1]) was “binds weakly” and the binding (FLAG tagged TOP2B [2]) was “no binding (condition: cells treated with ETO for 2 h)”. For the same substance, the binding (FLAG tagged TOP2B [3]) was “no binding (condition: cells treated with DOX for 2 h)”.
